Assay results reported in PubChem BioAssay AID2446 (Broad Institute, 2010).
Some of the results follow. Results with a measured potency or affinity are listed apart. Where no call is shown, the source marks the result inconclusive.

Assay: PubChem AID 2446
Conditions: H4 cells, PrP 5'UTR luciferase reporter, luminescence; at 19.5 µM (top of the series)

**Q.** Which activation does the source give for `CN(C)c1nc(N)nc(CSc2nnnn2-c2cccc3ccccc23)n1` here?
**A.** -10.6%
